In the supplement of paper PMC12823440, “Inhibitors supercharge kinase turnover through native proteolytic circuits” (Nature, 2025):
Counter-ions that a name gives are not always drawn. The list shows a part of the results. Hit calls seldom repeat between salt and free forms of one compound.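 In K562 cells expressing nanoluciferase-fused kinases, luminescence was recorded at 4 h intervals between 2 and 18 h, normalized as percent of control with DMSO at 100% and a positive control at 0%. A significant (2 sigma) signal drop marks a time point as decreased. The authors' rule for a hit is not shown and takes in more than the number of time points.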

The chains behind the UniProt entries cited, without tags or fusion partners. Where a name states a change or a piece, a line headed by the entry shows the natural chain unless it says otherwise.
UniProt P42680: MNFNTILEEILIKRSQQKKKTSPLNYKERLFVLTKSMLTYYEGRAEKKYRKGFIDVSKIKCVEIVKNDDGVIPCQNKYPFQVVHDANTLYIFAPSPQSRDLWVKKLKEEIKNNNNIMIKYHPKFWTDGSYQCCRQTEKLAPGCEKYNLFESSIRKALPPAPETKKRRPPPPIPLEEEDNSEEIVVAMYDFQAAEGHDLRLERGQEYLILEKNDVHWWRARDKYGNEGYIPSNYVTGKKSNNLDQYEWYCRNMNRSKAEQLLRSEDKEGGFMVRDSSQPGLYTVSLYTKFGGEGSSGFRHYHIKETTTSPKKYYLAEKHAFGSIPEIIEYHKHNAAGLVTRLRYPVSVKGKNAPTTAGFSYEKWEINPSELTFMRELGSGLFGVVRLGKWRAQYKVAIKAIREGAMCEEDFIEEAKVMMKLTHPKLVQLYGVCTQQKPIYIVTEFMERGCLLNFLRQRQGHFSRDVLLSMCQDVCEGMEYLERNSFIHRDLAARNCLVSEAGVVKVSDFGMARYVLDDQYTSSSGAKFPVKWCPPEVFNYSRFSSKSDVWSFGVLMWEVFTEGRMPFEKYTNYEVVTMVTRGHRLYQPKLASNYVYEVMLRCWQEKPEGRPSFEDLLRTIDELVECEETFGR

What follows are compounds tested against SYK (UniProt P43405) (assay: kinase-Nluc reporter destabilization hit call (1 = scored as downregulated) (binary); higher = compound decreases kinase abundance). Details: K562; 2-18 h.

kinase-Nluc reporter destabilization hit call, inactive:
S=C(NCc1ccc2c(c1)OCO2)N1CCN(c2ncnc3c2oc2ccccc23)CC1 [Amuvatinib] (2.5 µM) 0
CCC(F)(F)c1cc(N2CCC(S(C)(=O)=O)CC2)nc2sc(C(N)=O)c(N)c12 (10 µM) 0
O=c1cc(N2CCOCC2)oc2c(-c3cccc4c3sc3ccccc34)cccc12 (10 µM) 0
N#Cc1cnc(Nc2cc(NC[C@H]3CNCCO3)c(C(F)(F)F)cn2)cn1 (10 µM) 0
Nc1ccc(C(=O)Nc2cccc(-c3nc(N4CCOCC4)c4oc5ncccc5c4n3)c2)cn1 (10 µM) 0
COc1cc(N2CCC(N3CCN(C)CC3)CC2)ccc1Nc1ncnc(Nc2ccccc2S(=O)(=O)C(C)C)n1 (10 µM) 0
CO[C@@H]1[C@H](N(C)C(=O)c2ccccc2)C[C@H]2O[C@]1(C)n1c3ccccc3c3c4c(c5c6ccccc6n2c5c31)C(=O)NC4 [Midostaurin] (2.5 µM) 0

What follows are compounds tested against TEC (UniProt P42680) in the same assay as above. Details: K562; 2-18 h.

kinase-Nluc reporter destabilization hit call, inactive:
O=C(Nc1ccccc1C(=O)NC1CCCCNC1=O)c1cc2ccccc2s1 (stereo unspecified) (10 µM) 0
CCOc1cc(=O)[nH]cc1-c1ccc(CC(=O)Nc2cc(C(C)(C)C(F)(F)F)on2)c(F)c1 (10 µM) 0
Cn1cnc2c(F)c(Nc3ccc(Br)cc3F)c(C(=O)NOCCO)cc21 [Binimetinib] (10 µM) 0
Cc1ccc(NC(=O)N2CCN(c3nc(N)nc4sc(-c5cccnc5)nc34)CC2)cc1 [PI4KIII beta inhibitor 3] (10 µM) 0
CC(C1CC1)n1cnc2c(NCc3cccc(C(F)(F)F)c3)nc(NCCN(C)C)nc21 (stereo unspecified) (10 µM) 0
CCn1c(N)c(C(=O)NC)c(=O)c2ccc(C#CC(C)(O)COC)nc21 (stereo unspecified) (10 µM) 0
N#Cc1cc(N2CCC(C(=O)N3N=CC[C@H]3c3cc(F)cc(F)c3)CC2)ncn1 (10 µM) 0
CN1CCN(Cc2ccc(-c3cn(C4CCC(O)CC4)c4nc(NCCC5CC5)ncc34)cc2)CC1 (stereo unspecified) (2.5 µM) 0
COc1ccc(Cl)cc1N(CC(=O)Nc1ccc2c(c1)OCO2)S(=O)(=O)c1ccccc1 (2.5 µM) 0
CS[C@@]1(C(=O)Nc2ccc3[nH]nc(-c4ccc(OC(C)C)nc4)c3c2)CCN(CC(=O)N2CC=C(c3ccc(-c4ncn(C)n4)cc3)CC2)C1 (2.5 µM) 0
CCc1cc(Nc2nccc(-c3c(-c4ccc(OC)c(C(=O)Nc5c(F)cccc5F)c4)nc4ccccn34)n2)c(OC)cc1N1CCC(N2CCN(S(C)(=O)=O)CC2)CC1 (2.5 µM) 0
O=C(O)/C=C(\CCc1ccc(Cl)cc1)c1ccccc1 (10 µM) 0
Cc1cccc(CC(=O)N2CCc3c2ccc(-c2cn(C)c4ncnc(N)c24)c3F)n1 (10 µM) 0
CN(C)CCn1cc2cc(NC(=O)c3cccc(C(F)(F)F)n3)c(C(C)(C)O)cc2n1 (10 µM) 0
Cc1cc(N2CCOCC2)ccc1Nc1nc(NC2CCCCC2)c2[nH]cnc2n1 (10 µM) 0
COc1c(Nc2ncc(Cl)c(N[C@H]3[C@@H](C(N)=O)[C@@H]4C=C[C@H]3C4)n2)ccc2c1CC[C@@H](N1CCOCC1)CC2 (10 µM) 0
COc1cc2ncnc(Nc3cc(Br)c(O)c(Br)c3)c2cc1OC (2.5 µM) 0
Cc1cncc2cccc(S(=O)(=O)N3CCCNC[C@@H]3C)c12 [H-1152 (dihydrochloride)] (10 µM) 0
Nc1ccc(O)c(C(=O)O)c1 [5-Aminosalicylic Acid] (10 µM) 0
CC(C)(C)S(=O)(=O)c1cc2c(Nc3ccc4scnc4c3)ncnc2cc1OCCOP(=O)(O)O (2 µM) 0
CC(C)(CCCCCC(O)CCCCCC(C)(C)C(=O)O)C(=O)O [Bempedoic acid] (10 µM) 0
Cc1n[nH]c2ncc(C(=O)N3CCC[C@H]3c3ccc(Cl)cc3)cc12 (10 µM) 0
CCOC(=O)c1c(Nc2ccccc2Cl)oc(/C=C2\C=Nc3ncccc32)c1O (10 µM) 0
O=C(CCl)c1c[nH]c2ccccc12 (2.5 µM) 0
O=C(Nc1ccc(F)cc1F)C(NC(=S)Nc1cc(C(F)(F)F)cc(C(F)(F)F)c1)c1ccccc1 (racemic) (2.5 µM) 0
COc1cc2nc(NC3CC3)nc(NC3CCN(C(C)C)CC3)c2cc1OC (10 µM) 0
C=CC(=O)Nc1cc(Nc2nccc(-c3cn(C)c4ccccc34)n2)c(OCC(F)(F)F)nc1N(C)CCNC [AST5902  (trimesylate)] (2.5 µM) 0
CN(C)c1cc[n+](Cc2ccc(OCCOc3ccc(C[n+]4ccc(N(C)C)cc4)cc3)cc2)cc1 (10 µM) 0
COc1cc(N2CCC(O)CC2)ccc1Nc1nc(Nc2ccccc2S(=O)(=O)C(C)C)c2[nH]cnc2n1 (10 µM) 0
Cc1cccc(-c2nn3c(c2-c2ccnc4ccc(C(N)=O)cc24)CCC3)n1 [Galunisertib] (10 µM) 0
C[C@@H]1COC(Nc2ccc3ncnc(Nc4ccc(OCc5nccs5)c(Cl)c4)c3c2)=N1 [Varlitinib] (10 µM) 0
CS(=O)(=O)c1ccc([C@@H](CC2CCCC2)C(=O)Nc2nccs2)cc1 (10 µM) 0
S=C(NCc1ccc2c(c1)OCO2)N1CCN(c2ncnc3c2oc2ccccc23)CC1 [Amuvatinib] (2.5 µM) 0
CCC(F)(F)c1cc(N2CCC(S(C)(=O)=O)CC2)nc2sc(C(N)=O)c(N)c12 (10 µM) 0
O=c1cc(N2CCOCC2)oc2c(-c3cccc4c3sc3ccccc34)cccc12 (10 µM) 0
N#Cc1cnc(Nc2cc(NC[C@H]3CNCCO3)c(C(F)(F)F)cn2)cn1 (10 µM) 0
Nc1ccc(C(=O)Nc2cccc(-c3nc(N4CCOCC4)c4oc5ncccc5c4n3)c2)cn1 (10 µM) 0
COc1cc(N2CCC(N3CCN(C)CC3)CC2)ccc1Nc1ncnc(Nc2ccccc2S(=O)(=O)C(C)C)n1 (10 µM) 0
CO[C@@H]1[C@H](N(C)C(=O)c2ccccc2)C[C@H]2O[C@]1(C)n1c3ccccc3c3c4c(c5c6ccccc6n2c5c31)C(=O)NC4 [Midostaurin] (2.5 µM) 0
